# From patent US10702592B2, “Peptides and combination of peptides for use in immunotherapy against NHL and other cancers” (Immatics Biotechnologies GmbH, priority 2016, dated 2020)
# Legend:
# NHL samples = assay: Identification and label-free LC-MS quantitation of HLA-presented peptides: presentation profile/score, NHL vs normal tissues; set-up: species or system human; key: very highly over-presented on tumors compared to a panel of normal tissues (+++); highly over-presented on tumors compared to a panel of normal tissues (++); over-presented on tumors compared to a panel of normal tissues (+); settings: NHL tumors compared to a panel of normal tissues
# [1] = test system: other tumor types (tumor samples vs normal tissues); assay: LC-MS detection / over-presentation of peptides on additional tumor types; set-up: species or system human; settings: for Other relevant organs/diseases: additional tumor types on which the peptide was found: over-presented on more than 5% of measured tumor samples, or presented on more than 5% with ratio of geometric means tumor vs normal tissues larger than 3; for Other relevant organs / diseases (additional tumor types with over-presentation): over-presented on >5% of measured tumor samples, or presented on >5% with ratio of geometric means tumor vs normal >3
Substance,Peptide Presentation (NHL samples),Other relevant organs/diseases [1],Other relevant organs / diseases (additional tumor types with over-presentation) [1]
188 (GLEDEMYEV; listed as Homo sapiens) [compound 188],++,"CLL, Melanoma, Uterine Cancer, Gallbladder Cancer, Bile Duct Cancer",HNSCC
308 (SLLDQIPEM; listed as Homo sapiens) [compound 308],+,"RCC, CLL, AML, BRCA, Melanoma, OC, Uterine Cancer, Gallbladder Cancer, Bile Duct Cancer",HNSCC
242 (GILDFZVFL; listed as Homo sapiens) [compound 242],+,AML,
292 (KLINSQISL; listed as Homo sapiens) [compound 292],++,CLL,AML
236 (SLFDGFFLTA; listed as Homo sapiens) [compound 236],+,"CLL, AML, Melanoma, Uterine Cancer","RCC, GC"
164 (SLFDGAVISTV; listed as Homo sapiens) [compound 164],+++,"SCLC, Uterine Cancer",
6 (TLITLPLLFL; listed as Homo sapiens) [compound 6],+++,"CLL, Melanoma",
24 (AVLGFSFRL; listed as Homo sapiens) [compound 24],+++,CLL,AML
244 (ILEPFLPAV; listed as Homo sapiens) [compound 244],+,"Melanoma, Uterine Cancer","CLL, AML"
270 (VVVDSDSLAFV; listed as Homo sapiens) [compound 270],+++,"SCLC, CLL, Melanoma, Uterine Cancer, Gallbladder Cancer, Bile Duct Cancer",
76 (ALADLVPVDVVV; listed as Homo sapiens) [compound 76],+++,"SCLC, CLL, BRCA, Melanoma, Uterine Cancer",HNSCC
120 (VLLGTTWAL; listed as Homo sapiens) [compound 120],+++,AML,
195 (ALIPDLNQI; listed as Homo sapiens) [compound 195],+++,Uterine Cancer,
10 (FLLVGTQIDL; listed as Homo sapiens) [compound 10],+++,"CLL, BRCA, Uterine Cancer",
60 (SLLIDVITV; listed as Homo sapiens) [compound 60],+++,"CLL, Melanoma, Urinary bladder cancer, Uterine Cancer","NSCLC, SCLC, GC, CRC, PC, BRCA, AML"
285 (SITAVTPLL; listed as Homo sapiens) [compound 285],+,"RCC, AML",
148 (ICAGHVPGV; listed as Homo sapiens) [compound 148],+++,"AML, Uterine Cancer",
116 (SLLDNLLTI; listed as Homo sapiens) [compound 116],+,"HCC, CLL, AML, Melanoma",
179 (FVDTNLYFL; listed as Homo sapiens) [compound 179],+++,"RCC, CLL, Melanoma, Uterine Cancer",AML

Substance,Peptide Presentation (NHL samples),Other relevant organs/diseases [1],Other relevant organs / diseases (additional tumor types with over-presentation) [1]
84 (FLQELQLEHA; listed as Homo sapiens) [compound 84],+++,CLL,
98 (MLQDGIARL; listed as Homo sapiens) [compound 98],+++,"CLL, Melanoma",
17 (VIIPLLSSV; listed as Homo sapiens) [compound 17],+++,"CLL, AML, BRCA, Melanoma",
225 (GTYQDVGSLNIGDV; listed as Homo sapiens) [compound 225],+++,CLL,
117 (VLATILAQL; listed as Homo sapiens) [compound 117],+++,"SCLC, AML, Uterine Cancer",
103 (SLQDHLEKV; listed as Homo sapiens) [compound 103],+++,"HCC, CLL",Uterine Cancer
214 (FLFDGSMSL; listed as Homo sapiens) [compound 214],++,AML,Urinary Bladder Cancer
12 (GLLLLVPLL; listed as Homo sapiens) [compound 12],+++,"Melanoma, Gallbladder Cancer, Bile Duct Cancer","OC, Esophageal Cancer, HNSCC"
131 (VLIEETDQL; listed as Homo sapiens) [compound 131],+++,"CLL, Melanoma",BRCA
168 (SLLSPLLSV; listed as Homo sapiens) [compound 168],+++,,HNSCC
8 (ALYAVIEKA; listed as Homo sapiens) [compound 8],+++,"CLL, AML",
267 (SLLETGSDLLL; listed as Homo sapiens) [compound 267],+++,"HCC, Esophageal Cancer","Urinary Bladder Cancer, AML"
232 (KVMEGTVAA; listed as Homo sapiens) [compound 232],++,CLL,
13 (HLVPASWKL; listed as Homo sapiens) [compound 13],+++,"CLL, Melanoma",
83 (FLMDDNMSNTL; listed as Homo sapiens) [compound 83],+++,Melanoma,
305 (AMLAQQMQL; listed as Homo sapiens) [compound 305],+,"CLL, BRCA",
74 (SLDLRPLEV; listed as Homo sapiens) [compound 74],+,"RCC, GC",
53 (FLREYFERL; listed as Homo sapiens) [compound 53],+++,"CLL, Melanoma, Uterine Cancer",
146 (GLLQQPPAL; listed as Homo sapiens) [compound 146],+++,AML,HNSCC
